Data taken from paper doi:10.1101/2020.08.13.249276.
No constants are given. Whether binding was seen depends on the method and setting. Binding calls can cover weak binding; strength is not graded here. For some assays here: Binding seen in cells or lysates may run through a third protein.

The chains behind the UniProt entries cited, without tags or fusion partners. Where a name states a change or a piece, a line headed by the entry shows the natural chain unless it says otherwise.
UniProt F4J8D3: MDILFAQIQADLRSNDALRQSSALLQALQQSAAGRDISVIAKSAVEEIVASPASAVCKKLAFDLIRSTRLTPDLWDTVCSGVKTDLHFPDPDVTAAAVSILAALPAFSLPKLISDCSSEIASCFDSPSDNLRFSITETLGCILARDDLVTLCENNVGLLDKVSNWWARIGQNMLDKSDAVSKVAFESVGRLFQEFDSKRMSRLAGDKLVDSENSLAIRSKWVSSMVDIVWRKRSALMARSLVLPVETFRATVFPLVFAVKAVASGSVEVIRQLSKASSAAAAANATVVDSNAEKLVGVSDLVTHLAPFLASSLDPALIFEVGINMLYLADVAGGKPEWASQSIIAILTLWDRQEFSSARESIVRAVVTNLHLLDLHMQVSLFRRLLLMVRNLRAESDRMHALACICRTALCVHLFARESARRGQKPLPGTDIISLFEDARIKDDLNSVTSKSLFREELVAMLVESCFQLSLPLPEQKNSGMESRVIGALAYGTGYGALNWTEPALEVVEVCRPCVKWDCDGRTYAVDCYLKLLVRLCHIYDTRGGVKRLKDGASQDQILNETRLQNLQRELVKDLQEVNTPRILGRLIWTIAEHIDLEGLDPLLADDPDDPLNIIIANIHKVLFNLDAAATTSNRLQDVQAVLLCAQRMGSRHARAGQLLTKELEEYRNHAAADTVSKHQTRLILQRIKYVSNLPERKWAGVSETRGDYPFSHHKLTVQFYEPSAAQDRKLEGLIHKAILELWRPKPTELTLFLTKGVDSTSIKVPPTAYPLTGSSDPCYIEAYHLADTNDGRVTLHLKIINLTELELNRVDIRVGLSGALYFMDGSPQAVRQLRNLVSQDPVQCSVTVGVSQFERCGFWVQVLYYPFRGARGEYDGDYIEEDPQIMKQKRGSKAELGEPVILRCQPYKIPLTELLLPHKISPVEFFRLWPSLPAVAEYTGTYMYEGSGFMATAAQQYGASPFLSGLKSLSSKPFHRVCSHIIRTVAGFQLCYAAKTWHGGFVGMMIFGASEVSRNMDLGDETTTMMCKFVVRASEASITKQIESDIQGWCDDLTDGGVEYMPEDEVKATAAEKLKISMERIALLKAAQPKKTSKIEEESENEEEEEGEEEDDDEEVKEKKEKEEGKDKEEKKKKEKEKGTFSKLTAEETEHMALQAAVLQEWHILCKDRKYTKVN
UniProt F4KIH8: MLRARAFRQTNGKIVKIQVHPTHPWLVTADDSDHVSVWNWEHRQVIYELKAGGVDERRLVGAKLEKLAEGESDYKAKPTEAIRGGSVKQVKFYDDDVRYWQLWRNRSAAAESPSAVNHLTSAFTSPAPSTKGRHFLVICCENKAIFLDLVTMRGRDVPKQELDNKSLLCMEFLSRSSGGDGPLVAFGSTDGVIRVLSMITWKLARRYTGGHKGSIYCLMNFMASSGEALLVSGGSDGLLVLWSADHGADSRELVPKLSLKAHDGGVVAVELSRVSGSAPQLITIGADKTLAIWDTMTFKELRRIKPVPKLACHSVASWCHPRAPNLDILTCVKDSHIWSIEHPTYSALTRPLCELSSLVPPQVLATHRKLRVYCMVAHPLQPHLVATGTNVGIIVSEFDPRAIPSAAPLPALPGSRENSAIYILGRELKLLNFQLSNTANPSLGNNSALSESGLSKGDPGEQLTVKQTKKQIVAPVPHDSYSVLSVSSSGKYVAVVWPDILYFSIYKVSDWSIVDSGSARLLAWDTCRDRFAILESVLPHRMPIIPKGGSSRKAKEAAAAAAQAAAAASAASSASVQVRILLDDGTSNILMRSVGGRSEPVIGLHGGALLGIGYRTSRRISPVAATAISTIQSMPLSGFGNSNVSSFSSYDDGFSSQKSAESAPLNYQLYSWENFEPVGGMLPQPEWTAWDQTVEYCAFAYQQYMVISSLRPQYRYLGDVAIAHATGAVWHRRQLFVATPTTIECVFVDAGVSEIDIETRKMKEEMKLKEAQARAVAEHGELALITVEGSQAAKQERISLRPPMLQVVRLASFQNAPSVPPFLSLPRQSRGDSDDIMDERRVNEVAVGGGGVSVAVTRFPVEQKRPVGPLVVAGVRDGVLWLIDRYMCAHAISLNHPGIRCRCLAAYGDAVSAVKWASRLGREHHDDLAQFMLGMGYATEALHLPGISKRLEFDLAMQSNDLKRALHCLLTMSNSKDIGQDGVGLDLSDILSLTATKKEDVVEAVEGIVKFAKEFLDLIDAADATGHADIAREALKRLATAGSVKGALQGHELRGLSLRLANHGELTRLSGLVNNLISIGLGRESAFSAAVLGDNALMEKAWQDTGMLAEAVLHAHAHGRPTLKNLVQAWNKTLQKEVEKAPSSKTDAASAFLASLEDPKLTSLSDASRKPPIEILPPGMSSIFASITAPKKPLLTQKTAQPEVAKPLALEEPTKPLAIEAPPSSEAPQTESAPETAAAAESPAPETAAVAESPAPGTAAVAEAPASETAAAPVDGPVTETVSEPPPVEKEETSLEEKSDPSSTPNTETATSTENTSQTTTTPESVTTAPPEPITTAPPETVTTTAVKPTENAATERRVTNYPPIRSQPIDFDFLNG

Columns and labels:
TML-GS (Arabidopsis) = TML-GS (Arabidopsis) (UniProt Q9FKM4); assay: cross-linking
[1] = target: TPLATE-GFP (full-length) (Arabidopsis) (UniProt F4J8D3); assay: co-IP

| binding (TML-GS (Arabidopsis)) | binding [1] | Substance |
| --- | --- | --- |
| binds |  | AtEH1/Pan1 (from UniProt F4HUN9) |
|  | binds | TWD40-2 (from UniProt F4KIH8) |
